Assay results published in PMC10462243.
No constants are given. Whether binding was seen depends on the method and setting. In cells and extracts the contact can be indirect. Here binding means that the protein was enriched with, or labelled near, the bait; the list need not be complete. Tags and fused reporters may be left off the sequences shown.

Key:
[1] = molecular target: T1, ZZ-tagged Plk4 CPB (581–884) (UniProt O00444); experiment: affinity purification with mass spectrometry; Expt. 1: lysates of HEK293T cells transfected with ZZ-TEV-Plk4 CPB(581–884) on a human IgG column, eluted after AcTEV digestion with TBSN buffer; SDS-PAGE bands, trypsin, nanoLC-tandem MS
T1 sequence: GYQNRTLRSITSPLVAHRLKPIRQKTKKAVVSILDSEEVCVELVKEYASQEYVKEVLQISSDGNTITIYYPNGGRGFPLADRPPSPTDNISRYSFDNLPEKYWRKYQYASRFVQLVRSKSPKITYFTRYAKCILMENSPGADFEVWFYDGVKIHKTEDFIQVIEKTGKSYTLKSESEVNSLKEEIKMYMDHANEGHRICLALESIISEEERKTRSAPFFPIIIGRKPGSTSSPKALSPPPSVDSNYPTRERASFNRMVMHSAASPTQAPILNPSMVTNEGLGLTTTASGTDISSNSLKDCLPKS

[2] = molecular target: T2, FLAG-tagged Plk4 CTD (581–970) (UniProt O00444); experiment: affinity purification with mass spectrometry
T2 sequence: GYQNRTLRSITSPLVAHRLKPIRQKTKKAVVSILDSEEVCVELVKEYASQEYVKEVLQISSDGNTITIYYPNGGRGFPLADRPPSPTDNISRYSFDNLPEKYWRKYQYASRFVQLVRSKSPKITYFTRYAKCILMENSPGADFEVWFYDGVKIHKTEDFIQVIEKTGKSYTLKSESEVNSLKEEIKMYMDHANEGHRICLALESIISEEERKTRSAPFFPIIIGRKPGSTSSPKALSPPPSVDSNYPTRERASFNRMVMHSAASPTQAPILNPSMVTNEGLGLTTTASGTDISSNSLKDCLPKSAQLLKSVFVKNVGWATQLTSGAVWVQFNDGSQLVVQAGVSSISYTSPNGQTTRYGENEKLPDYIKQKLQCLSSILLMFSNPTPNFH

B1: Cep135 (endogenous, HEK293T) (protein, UniProt Q66GS9 1-1140)
chain: MTTAVERKYINIRKRLDQLGYRQTLTVECLPLVEKLFSDLVHTTESLRQSKLSAVKAEKESANFDFVLEPYKLENARLSRENNELYLELMKLREHSDQHVKELKTSLKKCARETADLKFLNNQYAHKLKLLEKESKAKNERIQQLQEKNLHAVVQTPGGKKRSIAFRRQRMQIDEPVPPSEVSSYPVPQPDDPYIADLLQVADNRIQELQQEVHQLQEKLAMMESGVRDYSKQIELREREIERLSVALDGGRSPDVLSLESRNKTNEKLIAHLNIQVDFLQQANKDLEKRIRELMETKETVTSEVVNLSNKNEKLCQELTEIDQLAQQLERHKEEVLETADKELGEAKKEIKRKLSEMQDLEETMAKLQLELNLCQKEKERLSDELLVKSDLETVVHQLEQEKQRLSKKVESFAVTERQLTLEVERMRLEHGIKRRDRSPSRLDTFLKGIEEERDYYKKELERLQHIIQRRSCSTSYSAREKSSIFRTPEKGDYNSEIHQITRERDELQRMLERFEKYMEDIQSNVKLLTAERDKLSVLYNEAQEELSALRKESTQTTAPHNIVSLMEKEKELALSDLRRIMAEKEALREKLEHIEEVSLFGKSELEKTIEHLTCVNHQLESEKYELKSKVLIMKETIESLENKLKVQAQKFSHVAGDSSHQKTEVNSLRIVNEQLQRSVDDYQHRLSIKRGELESAQAQIKILEEKIDELNLKMTSQDEEAHVMKKTIGVIDKEKDFLQETVDEKTEKIANLQENLANKEKAVAQMKIMISECESSVNQLKETLVNRDREINSLRRQLDAAHKELDEVGRSREIAFKENRRLQDDLATMARENQEISLELEAAVQEKEEMKSRVHKYITEVSRWESLMAAKEKENQDLLDRFQMLHNRAEDWEVKAHQAEGESSSVRLELLSIDTERRHLRERVELLEKEIQEHINAHHAYESQISSMAKAMSRLEEELRHQEDEKATVLNDLSSLRELCIKLDSGKDIMTQQLNSKNLEFERVVVELENVKSESDLLKKQLSNERHTVKNLESLLATNRDKEFHSHLTSHEKDTEIQLLKEKLTLSESKLTSQSRENTMLRAKVAQLQTDYDALKRQISTERYERERAIQEMRRHGLATPPLSSTLRSPSHSPEHRNV
binding [1]: binds | binding [2]: binds

B2: Cep57 (endogenous, HEK293T) (protein, UniProt Q86XR8 1-500)
chain: MAAASVSAASGSHLSNSFAEPSRSNGSMVRHSSSPYVVYPSDKPFLNSDLRRSPSKPTLAYPESNSRAIFSALKNLQDKIRRLELERIQAEESVKTLSRETIEYKKVLDEQIQERENSKNEESKHNQELTSQLLAAENKCNLLEKQLEYMRNMIKHAEMERTSVLEKQVSLERERQHDQTHVQSQLEKLDLLEQEYNKLTTMQALAEKKMQELEAKLHEEEQERKRMQAKAAELQTGLETNRLIFEDKATPCVPNARRIKKKKSKPPEKKSSRNYFGAQPHYRLCLGDMPFVAGKSTSPSHAVVANVQLVLHLMKQHSKALCNDRVINSIPLAKQVSSRGGKSKKLSVTPPSSNGINEELSEVLQTLQDEFGQMSFDHQQLAKLIQESPTVELKDKLECELEALVGRMEAKANQITKVRKYQAQLEKQKLEKQKKELKATKKTLDEERNSSSRSGITGTTNKKDFMKLRPGEKRRKNLQLLKDMQSIQNSLQSSSLCWDY
binding [1]: binds | binding [2]: binds

B3: Cep63 (endogenous, HEK293T) (protein, UniProt Q96MT8 1-703)
chain: MEALLEGIQNRGHGGGFLTSCEAELQELMKQIDIMVAHKKSEWEGRTHALETCLKIREQELKSLRSQLDVTHKEVGMLHQQVEEHEKIKQEMTMEYKQELKKLHEELCILKRSYEKLQKKQMREFRGNTKNHREDRSEIERLTAKIEEFRQKSLDWEKQRLIYQQQVSSLEAQRKALAEQSEIIQAQLVNRKQKLESVELSSQSEIQHLSSKLERANDTICANELEIERLTMRVNDLVGTSMTVLQEQQQKEEKLRESEKLLEALQEEKRELKAALQSQENLIHEARIQKEKLQEKVKATNTQHAVEAIRPREESLAEKKYTSQGQGDLDSVLSQLNFTHTSEDLLQAEVTCLEGSLESVSATCKQLSQELMEKYEELKRMEAHNNEYKAEIKKLKEQILQGEQSYSSALEGMKMEISHLTQELHQRDITIASTKGSSSDMEKRLRAEMQKAEDKAVEHKEILDQLESLKLENRHLSEMVMKLELGLHEAKEISLADLQENYIEALNKLVSENQQLQKDLMNTKSQLEISTQMCKKQNDRIFKPTHSRTTEFKNTEFKPTHGQHRHDGIKTEHYKTDLHSPRGQASDSINPMSRVLSPLSPQISPCSSTRSLTSYSLCKTHSLPSALDTNEANFSDTMSESMNDQEEFISSCSLPVSPLGSIATRFLEEEELRSHHILERLDAHIEELKRESEKTVRQFTALK
binding [1]: binds | binding [2]: binds
